The record followed here is US20050119205A1, “Methods of modulating heme oxygenase-1 expression and treating heme oxygenase-1 mediated conditions” (published 2005).

In series [1] the target is T1, biliverdin reductase (hBVR), E. coli expressed, monomeric (Homo sapiens) (UniProt P53004).
T1 sequence (limits assumed): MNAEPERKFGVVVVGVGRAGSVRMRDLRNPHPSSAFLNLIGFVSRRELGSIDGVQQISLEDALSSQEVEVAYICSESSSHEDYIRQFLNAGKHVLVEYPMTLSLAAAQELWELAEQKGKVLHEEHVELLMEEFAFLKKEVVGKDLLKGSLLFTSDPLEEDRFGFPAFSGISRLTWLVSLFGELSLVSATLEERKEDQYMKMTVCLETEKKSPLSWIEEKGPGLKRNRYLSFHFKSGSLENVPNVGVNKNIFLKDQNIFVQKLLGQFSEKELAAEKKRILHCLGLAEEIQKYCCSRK
Kind of series: EMSA. Conditions: monomeric E. coli protein; purified recombinant protein; label: 32P 5'. For orientation: A gel shift assay detects complexes by their altered migration in electrophoresis.

Series [2] has as its target T2, biliverdin reductase (hBVR) (Homo sapiens) (UniProt P53004).
T2 sequence (limits assumed): T1 sequence (limits assumed)
Description: EMSA. Conditions: subdued signal comparable to zero AP-1 fragment, AP-1-unrelated interaction; protein translated in vitro; protein details: rabbit reticulocyte lysate, 35S-Met labelled; label: 32P 5'.

For some assays here: A negative result means that nothing was seen under these conditions. Tags and fusion partners may be left off the protein sequences shown. For some assays here: For at least one entry, the source does not settle the construct or the ends of the probe. For some assays here: Weaker means in comparison with the reference protein, sequence or condition of that experiment.

In the case of “TCCTCAGCTGCTTTTATGCTGTGTCATGGTTGGGAGGGGTGATTAGCAGACAAAGGGAAGACAGATTTTGCTGAGTCACCCTCTGTTCCCTCTGCCTCAG (double strand) [100-mer HO-1 promoter, two AP-1 sites (OL.623/OL.624)]”, in series [1], the binding result is given as “no binding”. As for “TCCTCAGCTGCTTTTATGCTGTGTCATGGTTGGGAGGGGTGATTAGCAGACAAAGGGAAGACAGATTTTGCGATCCTCCCCTCTGTTCCCTCTGCCTCAG / CTGAGGCAGAGGGAACAGAGGGGAGGATCGCAAAATCTGTCTTCCCTTTGTCTGCTAATCACCCCTCCCAACCATACACAGCATAAAAGCAGCTGAGGA [100-mer, one AP-1 site (OL.619/OL.620)]”, the binding result in series [2] is “binds more weakly”.
